Measured values taken from the supplement of paper PMC9454738.
± gives the standard deviation of the averaged measurements. Some of the results follow. Single values are uncertain here, since repeats match poorly.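 Triple-negative MDA-MB-231 breast cancer cells and their brain-metastatic MDA-MB-231BRM derivative each stably expressed empty vector, full-length GLI1 or truncated tGLI1. CellTiter-Blue measured viability at 48 h relative to 1% DMSO vehicle. Compounds reducing viability 20% more in tGLI1 cells than in vector and GLI1 cells counted as tGLI1-selective.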

Tests used:
Assay in all cases: cell viability relative to vehicle (DMSO) control (fraction); higher = more viable cells (less growth inhibition)
Conditions in all cases: treatment time 48 h
MDA-MB-231 GLI1 = system: MDA-MB-231 GLI1
MDA-MB-231 Vector = system: MDA-MB-231 Vector
MDA-MB-231 tGLI1 = system: MDA-MB-231 tGLI1
MDA-MB-231BRM GLI1 = system: MDA-MB-231BRM GLI1
MDA-MB-231BRM Vector = system: MDA-MB-231BRM Vector
MDA-MB-231BRM tGLI1 = system: MDA-MB-231BRM tGLI1

| SMILES | cell viability (MDA-MB-231 GLI1; 0.05 µM) | cell viability (MDA-MB-231 GLI1; 0.5 µM) | cell viability (MDA-MB-231 GLI1; 5 µM) | cell viability (MDA-MB-231 Vector; 0.05 µM) | cell viability (MDA-MB-231 Vector; 0.5 µM) | cell viability (MDA-MB-231 Vector; 5 µM) | cell viability (MDA-MB-231 tGLI1; 0.05 µM) | cell viability (MDA-MB-231 tGLI1; 0.5 µM) | cell viability (MDA-MB-231 tGLI1; 5 µM) | cell viability (MDA-MB-231BRM GLI1; 0.05 µM) | cell viability (MDA-MB-231BRM GLI1; 0.5 µM) | cell viability (MDA-MB-231BRM GLI1; 5 µM) | cell viability (MDA-MB-231BRM Vector; 0.05 µM) | cell viability (MDA-MB-231BRM Vector; 0.5 µM) | cell viability (MDA-MB-231BRM Vector; 5 µM) | cell viability (MDA-MB-231BRM tGLI1; 0.05 µM) | cell viability (MDA-MB-231BRM tGLI1; 0.5 µM) | cell viability (MDA-MB-231BRM tGLI1; 5 µM) |
| --- | --- | --- | --- | --- | --- | --- | --- | --- | --- | --- | --- | --- | --- | --- | --- | --- | --- | --- |
| CNC(=O)c1nn(C)c2c1C(C)(C)Cc1cnc(Nc3ccc(N4CCN(C)CC4)cc3)nc1-2 | 1.02 | 0.71 | 0.101 | 1.1 | 0.778 | 0.216 | 1.37 | 0.726 | 0.147 | 0.983 | 0.999 | 0.868 | 0.919 | 0.965 | 0.814 | 0.998 | 1.05 | 0.777 |
| CCCCCOC(=O)Nc1nc(=O)n([C@@H]2O[C@H](C)[C@@H](O)[C@H]2O)cc1F [Capecitabine (Xeloda)] | 1.21 | 1.08 | 1.15 | 1.35 | 1.1 | 1.26 | 1.12 | 0.993 | 0.947 | 1.03 | 0.983 | 0.954 | 1.09 | 1.04 | 1.03 | 1.06 | 1.02 | 1.07 |
| Cn1cc(-c2cnn3c(N)c(Br)c([C@@H]4CCCNC4)nc23)cn1 | 1.14 | 1.19 | 0.537 | 1.27 | 1.17 | 0.949 | 1.25 | 1.13 | 0.744 | 0.993 | 1.05 | 1.11 | 1.07 | 1.04 | 1.06 | 1.01 | 1.1 | 1.04 |
| O=C(Nc1ccccc1C(=O)NC1CCCCNC1=O)c1cc2ccccc2s1 (stereo not drawn) | 2.2 | 3.12 | 2.05 | 1.3 | 1.19 | 1.28 | 1.39 | 1.49 | 1.51 | 0.898 | 0.776 | 0.651 | 0.872 | 0.762 | 0.702 | 1.03 | 1.18 | 1.04 |
| CCCC1O[C@@H]2C[C@H]3[C@@H]4CCC5=CC(=O)C=C[C@]5(C)[C@H]4[C@@H](O)C[C@]3(C)[C@]2(C(=O)CO)O1 (stereo partly drawn) [Budesonide] | 1.15 | 1.03 | 1.05 | 1.07 | 1.08 | 0.959 | 1.05 | 0.936 | 0.858 | 1 | 1.1 | 0.953 | 1.01 | 1.01 | 0.981 | 1.05 | 1.05 | 0.987 |
| COC(=O)c1ccc2c(c1)NC(=O)/C2=C(\Nc1ccc(N(C)C(=O)CN2CCN(C)CC2)cc1)c1ccccc1 [Nintedanib (BIBF 1120)] | 1.15 | 1.42 | 0.458 | 1.01 | 0.952 | 0.335 | 0.884 | 1.25 | 0.254 | 0.875 | 0.736 | 0.373 | 0.779 | 0.727 | 0.37 | 0.914 | 0.755 | 0.345 |
| Cn1c(Nc2ccc(C(F)(F)F)cc2)nc2cc(Oc3ccnc(-c4ncc(C(F)(F)F)[nH]4)c3)ccc21 | 1.11 | 0.973 | 0.777 | 1.4 | 0.716 | 0.599 | 0.935 | 0.783 | 0.711 | 1.11 | 0.999 | 0.566 | 1.17 | 0.971 | 0.672 | 1.03 | 1.01 | 0.587 |
| O=C1NC(=O)[C@@H](c2cn3c4c(cccc24)CCC3)[C@@H]1c1c[nH]c2ccccc12 [Tivantinib (ARQ 197)] | 1.31 | 0.431 | 0.063 | 1.25 | 0.578 | 0.127 | 1.37 | 0.141 | 0.0903 | 1.05 | 1.22 | 0.919 | 1.09 | 1.24 | 0.906 | 1.07 | 1.2 | 0.791 |
| COc1cc(CCc2cc(NC(=O)c3ccc(N4CC(C)NC(C)C4)cc3)n[nH]2)cc(OC)c1 (stereo not drawn) | 1.19 | 1.23 | 0.562 | 1.28 | 1.45 | 0.585 | 1.3 | 1.13 | 0.53 | 1.07 | 0.97 | 0.777 | 0.97 | 1.01 | 0.523 | 1.06 | 1.04 | 0.851 |
| CC[C@]1(O)C[C@@H]2CN(CCc3c([nH]c4ccccc34)[C@@](C(=O)OC)(c3cc4c(cc3OC)N(C)[C@H]3[C@@](O)(C(=O)OC)[C@H](OC(C)=O)[C@]5(CC)C=CCN6CC[C@]43[C@@H]65)C2)C1 [Vinblastine] | 0.145 | -0.0795 | -0.128 | -0.0186 | -0.385 | -0.376 | 0.0778 | -0.177 | -0.202 | 0.879 | 0.82 | 0.755 | 0.901 | 0.855 | 0.809 | 0.881 | 0.767 | 0.77 |
| c1cncc(CN2CCC(n3ncc4c(N5CCOCC5)nc(-c5ccc6[nH]ccc6c5)nc43)CC2)c1 | 1.21 | 1.03 | 0.0842 | 1.19 | 1.15 | 0.233 | 1.24 | 1.05 | 0.107 | 0.995 | 0.9 | 0.609 | 0.929 | 0.871 | 0.602 | 1.03 | 0.823 | 0.636 |
| CC(C)[C@H](CO)Nc1nc(Nc2cccc(Cl)c2)c2ncn(C(C)C)c2n1 [Purvalanol A] | 1.05 | 1.83 | 0.599 | 0.694 | 0.727 | 0.229 | 0.668 | 0.861 | 0.236 | 0.561 | 0.427 | 0.353 | 0.551 | 0.462 | 0.327 | 0.725 | 0.692 | 0.583 |
| COc1ccc2c(Oc3ccc(NC(=O)c4c(C)n(CC(C)(C)O)n(-c5ccccc5)c4=O)nc3)ccnc2c1 | 1.01 | 1.01 | 0.621 | 0.739 | 1.2 | 0.914 | 1.18 | 0.901 | 0.899 | 0.996 | 1.02 | 1.04 | 1.03 | 0.972 | 0.904 | 0.967 | 1.06 | 0.841 |
| CN1CCN(C2CCN(C(=O)Nc3cc(Oc4ccc(NC(=O)C5(C(=O)Nc6ccc(F)cc6)CC5)c(F)c4)ccn3)CC2)CC1 [Golvatinib (E7050)] | 1.01 | 1.07 | 1.01 | 1.01 | 1.06 | 0.766 | 1.02 | 0.999 | 0.744 | 0.974 | 0.973 | 0.915 | 1.06 | 1.03 | 0.898 | 0.987 | 1.01 | 0.833 |
| CCS(=O)(=O)c1cccc(-c2cc(C(=O)NC3CCN(C)CC3)c(C)c3[nH]c4ncc(C)cc4c23)c1 | 0.615 | 0.377 | 0.0425 | 0.699 | 0.51 | 0.215 | 0.719 | 0.489 | 0.115 | 1.03 | 1 | 0.986 | 1.04 | 1.06 | 0.969 | 1.04 | 1.02 | 0.883 |
| Nc1cccc2c1CN(C1CCC(=O)NC1=O)C2=O (stereo not drawn) [Lenalidomide] | 1.18 | 1.18 | 1.21 | 0.961 | 1.66 | 1.22 | 1.06 | 1.07 | 0.996 | 0.987 | 1.02 | 0.999 | 1.02 | 1.02 | 1.03 | 1.08 | 1.05 | 1.04 |
| COc1cc2ncnc(Oc3ccc(CC(=O)Nc4cnn(C(C)C)c4)cc3)c2cc1OC | 1.43 | 1.67 | 1.15 | 1.27 | 1.49 | 1.29 | 1.39 | 1.43 | 1.38 | 1.05 | 0.961 | 0.668 | 1.11 | 1.06 | 0.968 | 0.993 | 1.04 | 0.905 |
| Cc1cc(Nc2cc(N3CCN(C)CC3)nc(Sc3ccc(NC(=O)C4CC4)cc3)n2)n[nH]1 [VX-680 (Tozasertib, MK-0457)] | 0.609 | 1.36 | 0.78 | 1.09 | 0.919 | 0.587 | 0.98 | 1.04 | 0.374 | 0.913 | 0.954 | 0.963 | 0.951 | 0.902 | 0.974 | 0.88 | 0.95 | 0.891 |
| CCC[C@H](NC(=O)/C(C#N)=C/c1cccc(Br)n1)c1ccccc1 [Degrasyn (WP1130)] | 1.16 | 1.03 | -0.0548 | 0.971 | 1.32 | -0.0316 | 1.23 | 0.9 | -0.0475 | 0.997 | 1.09 | 1.06 | 1.03 | 1.05 | 0.907 | 0.989 | 1.07 | 1.1 |
| C[C@@H](Oc1cc(-n2cnc3ccc(CN4CCN(C)CC4)cc32)sc1C(N)=O)c1ccccc1C(F)(F)F | 0.122 | 0.127 | 0.23 | 0.167 | 0.305 | 0.194 | -0.0272 | 0.359 | 0.265 | 0.858 | 1.38 | 0.938 | 0.884 | 1.24 | 0.983 | 0.676 | 1.25 | 0.818 |
| O=C(Nc1c[nH]nc1-c1nc2ccc(CN3CCOCC3)cc2[nH]1)NC1CC1 | 1.19 | 0.85 | 0.255 | 1.13 | 0.863 | 0.266 | 0.763 | 0.873 | 0.266 | 0.959 | 1.01 | 0.95 | 0.922 | 0.979 | 0.892 | 1.02 | 0.908 | 0.843 |
| O=C1NC(=O)C(c2ccccc2[N+](=O)[O-])=C1Nc1ccc(O)c(Cl)c1 | 1.12 | 1.22 | 1.27 | 1.13 | 1.21 | 0.745 | 1.22 | 1.13 | 0.89 | 1.02 | 1.02 | 0.868 | 1.1 | 1.02 | 0.891 | 1.03 | 1.05 | 0.556 |
| CCC(=O)Nc1cccc(Oc2nc(Nc3ccc(N4CCN(C)CC4)cc3OC)ncc2Cl)c1 | 1.08 | 1.47 | 0.607 | 0.969 | 0.993 | 0.367 | 0.988 | 1.28 | 0.811 | 0.898 | 1 | 0.98 | 1.03 | 0.985 | 0.961 | 0.983 | 0.989 | 0.927 |
| C=CCc1ccc(O)c(-c2ccc(O)c(CC=C)c2)c1 [Honokiol] | 1.11 ± 0.08 | 1.033 ± 0.00034 | 1.05 ± 0.043 | 1.08 ± 0.075 | 1.01 ± 0.11 | 1.13 ± 0.11 | 1.11 ± 0.079 | 0.985 ± 0.04 | 1.06 ± 0.26 | 0.979 ± 0.029 | 0.99 ± 0.011 | 0.954 ± 0.048 | 1.05 ± 0.11 | 1.02 ± 0.034 | 0.9877 ± 0.0025 | 1.02 ± 0.021 | 0.959 ± 0.048 | 0.97 ± 0.072 |
| CCn1c(-c2nonc2N)nc2c(C#CC(C)(C)O)ncc(OC[C@H]3CCCNC3)c21 | 1.37 | 1.7 | 1.44 | 1.41 | 1.3 | 1.05 | 1.23 | 1.42 | 0.979 | 0.957 | 0.933 | 0.934 | 0.899 | 0.982 | 0.999 | 0.951 | 0.957 | 0.912 |
| CC[C@@H]([C@H](C)O)n1ncn(-c2ccc(N3CCN(c4ccc(OC[C@@H]5CO[C@@](Cn6cncn6)(c6ccc(F)cc6F)C5)cc4)CC3)cc2)c1=O [Posaconazole] | 1.12 | 1.09 | 0.842 | 1.07 | 1.21 | 0.906 | 0.999 | 1.04 | 0.853 | 1.08 | 0.977 | 0.596 | 1.05 | 0.967 | 0.775 | 1.09 | 0.939 | 0.822 |

Rewritten bar-delimited: entries from further up.
SMILES | cell viability (MDA-MB-231 GLI1; 0.05 µM) | cell viability (MDA-MB-231 GLI1; 0.5 µM) | cell viability (MDA-MB-231 GLI1; 5 µM) | cell viability (MDA-MB-231 Vector; 0.05 µM) | cell viability (MDA-MB-231 Vector; 0.5 µM) | cell viability (MDA-MB-231 Vector; 5 µM) | cell viability (MDA-MB-231 tGLI1; 0.05 µM) | cell viability (MDA-MB-231 tGLI1; 0.5 µM) | cell viability (MDA-MB-231 tGLI1; 5 µM) | cell viability (MDA-MB-231BRM GLI1; 0.05 µM) | cell viability (MDA-MB-231BRM GLI1; 0.5 µM) | cell viability (MDA-MB-231BRM GLI1; 5 µM) | cell viability (MDA-MB-231BRM Vector; 0.05 µM) | cell viability (MDA-MB-231BRM Vector; 0.5 µM) | cell viability (MDA-MB-231BRM Vector; 5 µM) | cell viability (MDA-MB-231BRM tGLI1; 0.05 µM) | cell viability (MDA-MB-231BRM tGLI1; 0.5 µM) | cell viability (MDA-MB-231BRM tGLI1; 5 µM)
CCCCCOC(=O)Nc1nc(=O)n([C@@H]2O[C@H](C)[C@@H](O)[C@H]2O)cc1F [Capecitabine (Xeloda)] | 1.21 | 1.08 | 1.15 | 1.35 | 1.1 | 1.26 | 1.12 | 0.993 | 0.947 | 1.03 | 0.983 | 0.954 | 1.09 | 1.04 | 1.03 | 1.06 | 1.02 | 1.07
Cn1cc(-c2cnn3c(N)c(Br)c([C@@H]4CCCNC4)nc23)cn1 | 1.14 | 1.19 | 0.537 | 1.27 | 1.17 | 0.949 | 1.25 | 1.13 | 0.744 | 0.993 | 1.05 | 1.11 | 1.07 | 1.04 | 1.06 | 1.01 | 1.1 | 1.04
